The supplement of paper PMC10849652
The list shows a part of the results.

Sequences of proteins named here, by UniProt entry; tags and fusion partners are left off. A change or cut given only in a name is not applied to a line headed by its entry.
UniProt Q8IW50: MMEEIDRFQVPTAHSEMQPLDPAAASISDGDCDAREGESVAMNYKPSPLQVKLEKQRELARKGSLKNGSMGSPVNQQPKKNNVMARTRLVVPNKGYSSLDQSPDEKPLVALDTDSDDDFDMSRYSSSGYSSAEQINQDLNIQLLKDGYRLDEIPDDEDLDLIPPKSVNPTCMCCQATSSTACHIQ
UniProt P10109: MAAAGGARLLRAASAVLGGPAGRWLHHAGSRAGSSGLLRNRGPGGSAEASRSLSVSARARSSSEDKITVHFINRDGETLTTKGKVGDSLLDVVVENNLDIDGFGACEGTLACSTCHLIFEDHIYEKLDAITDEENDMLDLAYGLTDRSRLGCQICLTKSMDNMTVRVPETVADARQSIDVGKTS
UniProt P12318: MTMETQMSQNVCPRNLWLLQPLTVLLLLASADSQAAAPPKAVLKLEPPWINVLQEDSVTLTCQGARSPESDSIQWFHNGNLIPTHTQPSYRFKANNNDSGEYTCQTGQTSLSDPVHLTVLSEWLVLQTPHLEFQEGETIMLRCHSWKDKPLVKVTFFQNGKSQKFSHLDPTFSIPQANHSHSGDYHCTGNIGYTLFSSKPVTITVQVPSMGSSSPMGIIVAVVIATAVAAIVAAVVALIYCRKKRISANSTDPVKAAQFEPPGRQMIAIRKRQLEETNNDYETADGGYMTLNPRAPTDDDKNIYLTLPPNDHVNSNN
UniProt Q9NXK8: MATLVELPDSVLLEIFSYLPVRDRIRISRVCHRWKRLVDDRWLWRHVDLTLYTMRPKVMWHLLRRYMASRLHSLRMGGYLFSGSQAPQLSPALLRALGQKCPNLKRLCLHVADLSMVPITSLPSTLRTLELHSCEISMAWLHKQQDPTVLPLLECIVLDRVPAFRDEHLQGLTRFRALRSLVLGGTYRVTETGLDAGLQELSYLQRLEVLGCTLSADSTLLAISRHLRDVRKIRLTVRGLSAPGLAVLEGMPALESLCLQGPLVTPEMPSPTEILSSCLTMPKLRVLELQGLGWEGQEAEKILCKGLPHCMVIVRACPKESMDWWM
UniProt Q9UK99: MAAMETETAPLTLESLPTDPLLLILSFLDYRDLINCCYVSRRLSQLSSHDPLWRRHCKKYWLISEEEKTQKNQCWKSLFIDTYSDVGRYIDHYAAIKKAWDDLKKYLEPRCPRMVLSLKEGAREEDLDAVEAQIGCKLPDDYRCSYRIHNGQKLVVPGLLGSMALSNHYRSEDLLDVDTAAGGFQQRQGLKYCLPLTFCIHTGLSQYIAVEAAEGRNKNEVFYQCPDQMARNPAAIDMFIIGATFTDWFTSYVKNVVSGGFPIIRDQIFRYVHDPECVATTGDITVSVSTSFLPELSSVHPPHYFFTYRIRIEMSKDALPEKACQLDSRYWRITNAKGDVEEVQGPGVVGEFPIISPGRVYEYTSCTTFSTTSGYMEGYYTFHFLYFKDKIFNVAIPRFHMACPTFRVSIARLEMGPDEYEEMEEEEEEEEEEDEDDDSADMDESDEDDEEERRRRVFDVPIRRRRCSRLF
UniProt Q658Y4: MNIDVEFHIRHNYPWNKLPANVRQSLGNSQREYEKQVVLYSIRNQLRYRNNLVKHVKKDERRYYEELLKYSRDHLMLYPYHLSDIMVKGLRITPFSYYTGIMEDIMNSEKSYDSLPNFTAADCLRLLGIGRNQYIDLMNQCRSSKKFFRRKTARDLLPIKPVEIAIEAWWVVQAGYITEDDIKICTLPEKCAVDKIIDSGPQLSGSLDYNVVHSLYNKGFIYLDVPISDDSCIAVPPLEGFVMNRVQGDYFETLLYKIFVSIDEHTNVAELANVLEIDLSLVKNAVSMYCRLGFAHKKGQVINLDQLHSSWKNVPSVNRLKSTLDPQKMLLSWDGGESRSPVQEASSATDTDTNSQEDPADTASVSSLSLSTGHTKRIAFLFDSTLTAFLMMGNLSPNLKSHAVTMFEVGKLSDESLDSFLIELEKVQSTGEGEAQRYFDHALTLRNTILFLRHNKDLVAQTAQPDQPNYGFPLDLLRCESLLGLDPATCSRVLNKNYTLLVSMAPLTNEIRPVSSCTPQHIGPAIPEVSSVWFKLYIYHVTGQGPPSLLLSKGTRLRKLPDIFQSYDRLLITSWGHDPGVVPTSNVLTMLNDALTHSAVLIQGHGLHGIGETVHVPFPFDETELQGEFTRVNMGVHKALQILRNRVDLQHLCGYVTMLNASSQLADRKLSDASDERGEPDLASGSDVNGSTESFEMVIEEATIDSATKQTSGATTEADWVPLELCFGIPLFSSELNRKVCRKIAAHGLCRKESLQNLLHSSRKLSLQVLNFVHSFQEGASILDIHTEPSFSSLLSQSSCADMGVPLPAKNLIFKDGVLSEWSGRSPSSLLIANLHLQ
UniProt P31995: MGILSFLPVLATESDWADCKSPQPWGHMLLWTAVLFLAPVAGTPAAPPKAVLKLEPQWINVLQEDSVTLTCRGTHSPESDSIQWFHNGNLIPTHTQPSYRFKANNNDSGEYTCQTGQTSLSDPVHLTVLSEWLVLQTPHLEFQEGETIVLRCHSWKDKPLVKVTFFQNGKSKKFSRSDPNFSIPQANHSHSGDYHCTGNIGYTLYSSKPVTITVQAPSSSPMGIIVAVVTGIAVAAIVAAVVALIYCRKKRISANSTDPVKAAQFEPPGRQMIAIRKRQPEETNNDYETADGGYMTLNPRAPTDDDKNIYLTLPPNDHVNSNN
UniProt Q7L8L6: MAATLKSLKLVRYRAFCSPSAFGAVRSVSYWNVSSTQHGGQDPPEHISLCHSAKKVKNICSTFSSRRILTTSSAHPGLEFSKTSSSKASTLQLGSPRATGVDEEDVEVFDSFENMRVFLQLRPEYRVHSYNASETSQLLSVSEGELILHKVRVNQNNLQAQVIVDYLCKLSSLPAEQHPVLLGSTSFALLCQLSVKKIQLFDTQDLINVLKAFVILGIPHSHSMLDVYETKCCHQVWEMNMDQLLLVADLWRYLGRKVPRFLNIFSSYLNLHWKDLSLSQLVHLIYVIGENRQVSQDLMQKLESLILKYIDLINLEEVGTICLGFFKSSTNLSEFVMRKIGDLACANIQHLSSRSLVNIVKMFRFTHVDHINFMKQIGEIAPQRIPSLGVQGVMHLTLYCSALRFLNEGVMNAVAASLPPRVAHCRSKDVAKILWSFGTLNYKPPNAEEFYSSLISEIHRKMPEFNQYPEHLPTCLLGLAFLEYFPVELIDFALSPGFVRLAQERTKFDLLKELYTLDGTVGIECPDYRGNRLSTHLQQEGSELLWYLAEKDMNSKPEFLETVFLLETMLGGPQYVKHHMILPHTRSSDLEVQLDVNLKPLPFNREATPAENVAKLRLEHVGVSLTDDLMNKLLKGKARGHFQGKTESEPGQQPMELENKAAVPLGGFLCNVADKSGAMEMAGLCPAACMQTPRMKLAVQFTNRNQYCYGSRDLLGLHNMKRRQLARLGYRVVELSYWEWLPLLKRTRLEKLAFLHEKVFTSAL
UniProt Q96AY3, whole entry, looked up: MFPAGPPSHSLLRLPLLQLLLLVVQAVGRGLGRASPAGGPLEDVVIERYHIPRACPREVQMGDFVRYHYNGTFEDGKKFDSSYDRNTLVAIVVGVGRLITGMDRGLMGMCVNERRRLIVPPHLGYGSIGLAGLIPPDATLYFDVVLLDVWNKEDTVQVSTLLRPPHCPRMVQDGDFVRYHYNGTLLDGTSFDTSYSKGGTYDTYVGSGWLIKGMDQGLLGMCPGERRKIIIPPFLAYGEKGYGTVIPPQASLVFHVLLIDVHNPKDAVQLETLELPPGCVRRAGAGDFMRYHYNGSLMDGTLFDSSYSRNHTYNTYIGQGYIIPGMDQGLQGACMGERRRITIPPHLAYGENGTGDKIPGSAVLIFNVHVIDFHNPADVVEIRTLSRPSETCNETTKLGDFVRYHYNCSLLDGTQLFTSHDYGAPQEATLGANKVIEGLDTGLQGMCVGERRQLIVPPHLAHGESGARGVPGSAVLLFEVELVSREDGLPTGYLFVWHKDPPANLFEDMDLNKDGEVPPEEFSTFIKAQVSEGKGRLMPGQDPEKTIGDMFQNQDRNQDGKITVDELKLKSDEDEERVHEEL
UniProt Q13045: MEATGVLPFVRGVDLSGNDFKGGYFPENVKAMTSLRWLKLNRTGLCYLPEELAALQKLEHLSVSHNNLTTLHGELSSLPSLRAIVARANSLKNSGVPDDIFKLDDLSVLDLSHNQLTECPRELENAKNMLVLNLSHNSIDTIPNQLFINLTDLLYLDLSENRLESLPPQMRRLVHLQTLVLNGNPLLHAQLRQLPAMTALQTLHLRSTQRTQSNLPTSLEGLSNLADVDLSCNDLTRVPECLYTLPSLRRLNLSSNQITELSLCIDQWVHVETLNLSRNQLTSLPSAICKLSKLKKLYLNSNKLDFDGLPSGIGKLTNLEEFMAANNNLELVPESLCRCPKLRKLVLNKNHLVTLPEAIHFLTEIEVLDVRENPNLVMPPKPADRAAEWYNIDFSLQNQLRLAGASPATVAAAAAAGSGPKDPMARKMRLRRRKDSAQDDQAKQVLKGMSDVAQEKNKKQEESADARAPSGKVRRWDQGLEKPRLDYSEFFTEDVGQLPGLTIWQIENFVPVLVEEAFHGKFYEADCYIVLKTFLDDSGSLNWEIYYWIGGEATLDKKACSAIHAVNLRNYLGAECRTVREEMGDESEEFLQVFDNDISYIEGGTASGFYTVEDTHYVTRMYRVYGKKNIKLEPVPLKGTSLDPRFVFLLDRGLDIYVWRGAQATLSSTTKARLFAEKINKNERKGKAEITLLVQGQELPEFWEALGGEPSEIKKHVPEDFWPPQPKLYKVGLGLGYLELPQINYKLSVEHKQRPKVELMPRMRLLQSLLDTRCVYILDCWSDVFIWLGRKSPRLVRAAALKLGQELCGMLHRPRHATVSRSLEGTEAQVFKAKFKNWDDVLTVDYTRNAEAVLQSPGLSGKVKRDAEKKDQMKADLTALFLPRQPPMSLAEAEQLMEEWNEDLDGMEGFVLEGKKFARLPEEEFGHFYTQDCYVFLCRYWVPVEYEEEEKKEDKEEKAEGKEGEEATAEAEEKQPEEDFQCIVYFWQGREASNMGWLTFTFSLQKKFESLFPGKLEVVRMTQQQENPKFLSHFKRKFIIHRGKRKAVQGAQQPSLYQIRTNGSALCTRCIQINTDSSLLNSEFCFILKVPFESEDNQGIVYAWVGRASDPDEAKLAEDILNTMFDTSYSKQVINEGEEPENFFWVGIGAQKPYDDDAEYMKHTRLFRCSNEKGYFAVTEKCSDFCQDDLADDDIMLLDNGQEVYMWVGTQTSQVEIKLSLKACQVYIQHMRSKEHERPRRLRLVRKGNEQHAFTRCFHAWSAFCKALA
UniProt Q9HCM7, whole entry, looked up: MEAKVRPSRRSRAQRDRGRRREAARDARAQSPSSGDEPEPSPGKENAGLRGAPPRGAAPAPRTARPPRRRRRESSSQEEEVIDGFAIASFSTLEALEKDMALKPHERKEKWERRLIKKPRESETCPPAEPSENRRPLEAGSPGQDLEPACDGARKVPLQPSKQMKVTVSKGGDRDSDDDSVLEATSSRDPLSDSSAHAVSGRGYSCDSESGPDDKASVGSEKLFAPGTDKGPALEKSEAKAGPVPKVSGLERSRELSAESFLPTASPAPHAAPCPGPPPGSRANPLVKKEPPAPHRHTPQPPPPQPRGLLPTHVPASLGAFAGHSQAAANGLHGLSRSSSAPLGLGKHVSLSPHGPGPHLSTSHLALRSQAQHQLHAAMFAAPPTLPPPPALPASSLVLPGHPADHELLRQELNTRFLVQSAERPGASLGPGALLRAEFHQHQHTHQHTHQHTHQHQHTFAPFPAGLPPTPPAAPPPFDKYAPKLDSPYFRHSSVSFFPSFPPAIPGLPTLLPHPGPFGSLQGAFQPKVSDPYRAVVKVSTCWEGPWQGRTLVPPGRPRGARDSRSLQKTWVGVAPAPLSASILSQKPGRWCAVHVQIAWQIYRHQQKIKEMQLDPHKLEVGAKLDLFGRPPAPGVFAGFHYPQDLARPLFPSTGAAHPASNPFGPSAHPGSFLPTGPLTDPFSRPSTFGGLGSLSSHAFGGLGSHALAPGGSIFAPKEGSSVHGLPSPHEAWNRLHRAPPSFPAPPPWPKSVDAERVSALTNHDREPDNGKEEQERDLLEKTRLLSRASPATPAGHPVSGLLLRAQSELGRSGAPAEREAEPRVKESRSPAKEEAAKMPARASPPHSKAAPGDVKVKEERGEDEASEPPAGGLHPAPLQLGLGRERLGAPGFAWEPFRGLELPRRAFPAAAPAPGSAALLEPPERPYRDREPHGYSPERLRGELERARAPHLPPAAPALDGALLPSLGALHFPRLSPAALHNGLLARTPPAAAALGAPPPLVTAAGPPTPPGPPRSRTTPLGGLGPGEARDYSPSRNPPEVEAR

Assays:
Assay in all cases: log2 fold change, soluble protein after heating vs DMSO (PISA); higher = thermal stabilisation; K562 cells, 10 uM, 30 min; active = over 0.2 and 3.5 SD of the protein, either way, in both replicates (recomputed)
[1] = compound: CC[C@@H]1C(=O)N(C)c2cnc(Nc3ccc(C(=O)NC4CCN(C)CC4)cc3OC)nc2N1C1CCCC1
Procedure, shortened: (§1)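 Soluble protein was defined as the supernatant after 21,000xg for 90 min. It came from K562 cells at 2×10^6 cells/mL given 10 μM compound for 30 min, heated in aliquots for 3 min across 48°C-58°C, pooled, and extracted in PBS with 0.5% NP-40 at 4°C, and was quantified by TMTpro 16plex LC-MS/MS with equalised channel sums. Thermal stability against control samples, from duplicates, is reported as log2 fold change.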

volasertib = compound: CC[C@@H]1C(=O)N(C)c2cnc(Nc3ccc(C(=O)N[C@H]4CC[C@H](N5CCN(CC6CC6)CC5)CC4)cc3OC)nc2N1C(C)C [volasertib]
Procedure, shortened: as §1

[2] = compound: CC[C@H](C)N1C=C(C2=C(C=C(C=C21)C3=CN=C(C=C3)N4CCNCC4)C(=O)NCC5=C(C=C(NC5=O)C)C)C
Procedure, shortened: as §1

epoxomicin = compound: CC[C@H](C)[C@@H](C(=O)N[C@@H]([C@@H](C)O)C(=O)N[C@@H](CC(C)C)C(=O)[C@]1(CO1)C)NC(=O)[C@H]([C@@H](C)CC)N(C)C(=O)C [epoxomicin]
Procedure, shortened: as §1

[3] = compound: CCn1c(C(=O)N(C2CC2)C2CC2)cc2c3c(ncn3C)c(Nc3cc(C)n(C)n3)nc21
Procedure, shortened: as §1

rosiglitazone = compound: CN(CCOC1=CC=C(C=C1)C[C@H]2C(=O)NC(=O)S2)C3=CC=CC=N3 (racemic) [rosiglitazone]
Procedure, shortened: as §1

[4] = compound: CN1C2=C(C3=C1C(=O)N(N=C3)CC4=CC(=CC=C4)N)SC(=C2)S(=O)C
Procedure, shortened: as §1

saracatinib = compound: CN1CCN(CCOc2cc(OC3CCOCC3)c3c(Nc4c(Cl)ccc5c4OCO5)ncnc3c2)CC1 [saracatinib]
Procedure, shortened: as §1

sotrastaurin = compound: CN1CCN(c2nc(C3=C(c4c[nH]c5ccccc45)C(=O)NC3=O)c3ccccc3n2)CC1 [sotrastaurin]
Procedure, shortened: as §1

alvocidib = compound: CN1CC[C@H](c2c(O)cc(O)c3c(=O)cc(-c4ccccc4Cl)oc23)[C@H](O)C1 [alvocidib]
Procedure, shortened: as §1

Tubastatin A = compound: CN1CCc2c(c3ccccc3n2Cc2ccc(C(=O)NO)cc2)C1 [Tubastatin A]
Procedure, shortened: as §1

[5] = compound: CNC(=O)C1=CC=CC=C1NC2=NC(=NC=C2Cl)NC3=C(C=C(C=C3)N4CCOCC4)OC
Procedure, shortened: as §1

rucaparib = compound: CNCc1ccc(-c2[nH]c3cc(F)cc4c3c2CCNC4=O)cc1 [rucaparib]
Procedure, shortened: as §1

[6] = compound: CNc1nc(-c2ccc3c(N)n[nH]c3c2)cc(N2C[C@@H](C(=O)NC3CCCCC3)CC[C@H]2C)n1
Procedure, shortened: as §1

encorafenib = compound: COC(=O)N[C@@H](C)CNc1nccc(-c2cn(C(C)C)nc2-c2cc(Cl)cc(NS(C)(=O)=O)c2F)n1 [encorafenib]
Procedure, shortened: as §1

[7] = compound: CCn1cc(-c2ccnc3[nH]c(-c4cccc(CN(C)C)c4)cc23)c(-c2ccc(NC(=O)N(C)C)cc2)n1
Procedure, shortened: as §1

[8] = compound: CN(C)CC(=O)Nc1ccc2[nH]c(=O)c3ccccc3c2c1
Procedure, shortened: as §1

[9] = compound: CN1CCC(CNc2ccc3ncc(-c4cccc(OC(F)(F)F)c4)n3n2)CC1
Procedure, shortened: as §1

defactinib = compound: CNC(=O)c1ccc(Nc2ncc(C(F)(F)F)c(NCc3nccnc3N(C)S(C)(=O)=O)n2)cc1 [defactinib]
Procedure, shortened: as §1

[10] = compound: COC(=O)[C@H](CCSC)NC(=O)C1=C(C=C(C=C1)NC[C@H](CS)N)C2=CC=CC=C2
Procedure, shortened: as §1

Measured: log2 fold change

FAM219A (UniProt Q8IW50)
inactive: [1] 0.052 | volasertib 0.095 | [2] 0.179 | epoxomicin 0.099 | [3] -0.115 | rosiglitazone 0.028 | [4] -0.106 | saracatinib 0.132 | sotrastaurin 0.051 | alvocidib -0.098 | Tubastatin A -0.015 | [5] -0.074 | rucaparib -0.009 | [6] -0.023 | encorafenib 0.047

FDX1 (UniProt P10109)
inactive: [1] 0.013 | volasertib -0.021 | [2] -0.049 | epoxomicin 0.043 | [3] 0.036 | [7] -0.018 | [8] -0.009 | rosiglitazone -0.007 | [4] -0.047 | [9] 0.117 | saracatinib 0.046 | sotrastaurin -0.074 | alvocidib -0.016 | Tubastatin A -0.025 | [5] -0.043 | defactinib 0.053 | rucaparib 0.074 | [6] -0.033 | encorafenib -0.076 | [10] 0.032

FCGR2A (UniProt P12318)
inactive: [1] 0.201 | volasertib -0.035 | [2] -0.099 | epoxomicin 0.006 | [3] -0.042 | [7] -0.133 | [8] -0.092 | rosiglitazone -0.021 | [4] -0.176 | [9] 0.003 | saracatinib 0.107 | sotrastaurin 0.101 | Tubastatin A -0.054 | [5] -0.019 | defactinib -0.186 | rucaparib 0.109 | [6] -0.238 | encorafenib -0.082 | [10] 0.025

FLVCR1 (UniProt Q9Y5Y0)
inactive: [1] 0.12 | volasertib 0.064 | [2] -0.009 | epoxomicin -0.141 | [3] 0.051 | [7] -0.001 | [8] -0.061 | rosiglitazone -0.023 | [4] -0.076 | [9] 0.179 | saracatinib 0.113 | sotrastaurin 0.019 | alvocidib 0.013 | Tubastatin A -0.018 | [5] -0.03 | defactinib -0.072 | rucaparib 0.054 | [6] 0.013 | encorafenib -0.12 | [10] 0.067

FBXL12 (UniProt Q9NXK8)
inactive: [1] -0.087 | volasertib -0.083 | [2] 0.019 | epoxomicin -0.024 | [3] -0.052 | [7] 0.02 | [8] 0.106 | rosiglitazone -0.025 | [4] -0.091 | [9] 0.192 | saracatinib 0.056 | sotrastaurin -0.022 | alvocidib -0.257 | Tubastatin A 0.102 | [5] 0.045 | defactinib -0.093 | rucaparib 0.122 | [6] 0.051 | encorafenib -0.051 | [10] -0.036

FBXO3 (UniProt Q9UK99)
inactive: [1] 0.041 | volasertib 0.042 | [2] 0.052 | epoxomicin 0.007 | [7] -0.074 | [8] -0.03 | [4] 0.023 | [9] -0.038 | saracatinib 0.029 | sotrastaurin 0.049 | Tubastatin A 0.157 | [5] -0.051 | defactinib 0.072 | rucaparib 0.016 | [6] -0.076 | encorafenib 0.018 | [10] -0.005

FKBP9 (UniProt O95302)
inactive: [1] 0.025 | volasertib -0.029 | [2] 0.023 | epoxomicin -0.03 | [3] -0.013 | [7] 0.035 | [8] 0.218 | rosiglitazone 0.022 | [4] 0.086 | [9] 0.066 | saracatinib -0.11 | sotrastaurin 0.001 | alvocidib 0.044 | Tubastatin A 0.01 | [5] 0.037 | defactinib -0.016 | rucaparib 0.002 | [6] -0.046 | encorafenib 0.061 | [10] -0.014

FAM91A1 (UniProt Q658Y4)
active: epoxomicin -0.675 | [9] 0.233
inactive: [1] 0.062 | volasertib 0.221 | [2] -0.007 | [7] -0.015 | [8] -0.003 | [4] 0.001 | saracatinib 0.055 | sotrastaurin -0.049 | Tubastatin A 0.005 | [5] 0.059 | defactinib 0 | rucaparib -0.015 | [6] 0.002 | encorafenib 0.05 | [10] -0.025

FAT3 isoform 1 (UniProt Q8TDW7)
inactive: [1] -0.044 | volasertib -0.049 | [2] -0.082 | epoxomicin -0.06 | [3] 0.011 | [8] -0.133 | rosiglitazone 0.007 | [4] 0.077 | saracatinib 0.297 | sotrastaurin 0.158 | [5] 0.097 | defactinib -0.066 | rucaparib -0.106 | [6] 0.043 | encorafenib -0.097 | [10] 0.093

FBL (UniProt P22087)
inactive: [1] 0.283 | volasertib 0.151 | [2] -0.034 | epoxomicin -0.396 | [7] 0.184 | [8] -0.143 | [4] 0.359 | [9] 0.34 | saracatinib 0.11 | sotrastaurin -0.016 | Tubastatin A -0.022 | [5] -0.012 | defactinib 0.375 | rucaparib 0.511 | [6] 0.002 | encorafenib 0.096 | [10] 0.023

FBXW9 (UniProt Q5XUX1)
inactive: [1] -0.049 | volasertib -0.119 | [2] -0.043 | epoxomicin -0.012 | [3] 0.019 | [8] 0.034 | rosiglitazone 0.022 | [4] 0.014 | saracatinib -0.023 | sotrastaurin 0.028 | alvocidib -0.032 | Tubastatin A 0.015 | [5] 0.061 | defactinib -0.073 | rucaparib 0.07 | [6] -0.059 | encorafenib -0.065 | [10] -0.006

FKRP (UniProt Q9H9S5)
inactive: [1] 0.024 | volasertib -0.079 | [2] 0.018 | epoxomicin -0.007 | [3] 0.008 | [7] 0.084 | [8] -0.084 | rosiglitazone 0.082 | [4] 0.008 | [9] -0.067 | saracatinib 0.08 | sotrastaurin 0.071 | Tubastatin A 0 | [5] -0.049 | defactinib -0.021 | rucaparib 0.123 | [6] -0.044 | encorafenib 0.053 | [10] 0.057

FCGR2C (UniProt P31995)
inactive: [1] 0.102 | volasertib 0.052 | [2] -0.05 | epoxomicin -0.032 | [3] 0.006 | [7] -0.033 | [8] -0.114 | rosiglitazone -0.041 | [4] -0.122 | [9] 0.203 | saracatinib 0.071 | sotrastaurin 0.04 | alvocidib -0.02 | Tubastatin A 0.03 | [5] -0.038 | defactinib -0.003 | rucaparib -0.011 | [6] 0.084 | encorafenib -0.019 | [10] -0.001

FAXDC2 (UniProt Q96IV6)
inactive: [2] -0.017 | rosiglitazone 0.038

FASTKD5 (UniProt Q7L8L6)
inactive: volasertib 0.048 | epoxomicin -0.094 | [3] -0.149 | [7] -0.021 | [8] 0.198 | rosiglitazone 0.102 | [4] 0.127 | [9] -0.207 | saracatinib -0.03 | sotrastaurin -0.158 | alvocidib 0.155 | Tubastatin A 0.273 | [5] -0.153 | defactinib -0.508 | [6] -0.068 | [10] -0.075

FKBP10 (UniProt Q96AY3)
inactive: [7] -0.134 | [9] 0.099 | sotrastaurin 0.048

FLII isoform 2 (UniProt Q13045)
inactive: volasertib -0.01 | epoxomicin -0.025 | sotrastaurin -0.064 | alvocidib -0.209 | Tubastatin A 0.281

FAM86B2 (UniProt P0C5J1)
inactive: sotrastaurin 0.041

FBRSL1 (UniProt Q9HCM7)
inactive: [2] 0.048 | epoxomicin 0.156 | [3] 0.118 | Tubastatin A 0.166 | [5] -0.146

2 records drawn at random from those above:
FBRSL1 (UniProt Q9HCM7)
inactive: [2] 0.048 | epoxomicin 0.156 | [3] 0.118 | Tubastatin A 0.166 | [5] -0.146

FASTKD5 (UniProt Q7L8L6)
inactive: volasertib 0.048 | epoxomicin -0.094 | [3] -0.149 | [7] -0.021 | [8] 0.198 | rosiglitazone 0.102 | [4] 0.127 | [9] -0.207 | saracatinib -0.03 | sotrastaurin -0.158 | alvocidib 0.155 | Tubastatin A 0.273 | [5] -0.153 | defactinib -0.508 | [6] -0.068 | [10] -0.075
